# Patent US20120245078A1, “MEANS AND METHODS FOR TREATING ISCHEMIC CONDITIONS” (priority 2009, published 2012)
# At least one structure is not confirmed: it was looked up by name or label, or the drawing left a doubt.
# Tested on: occludin protein
# Experiment: Western blot and densitometry, occludin protein in cEND cells
# Assay type: cell-based, mouse
# Settings: after 4 h O2/glucose deprivation, dexamethasone
# Protocol: (C)-(D) The influence of O2/glucose-deprivation on the tight junction proteins occludin and claudin-5 could be shown by Western Blot: for this, cells were seeded on plastic cell culture flasks coated with collagen IV, treated as indicated and subjected to SDS-gel electrophoresis and Western blotting. A four-hour exposure to O2/glucose-deprivation caused a significant (P<0.05) decrease in occludin protein to 82±3% as compared to the untreated control. […]. Comparably, O2/glucose-deprivation caused a significant (P<0.001) decrease in claudin-5 protein to 61±4% as compared to the untreated control. […]. (C) Effects of proteasomal inhibition on occludin protein levels were examined by western blot analysis and densitometric analysis.
smiles,measurement,value
C[C@@H]1C[C@H]2[C@@H]3CCC4=CC(=O)C=C[C@]4(C)[C@@]3(F)[C@@H](O)C[C@]2(C)[C@@]1(O)C(=O)CO [dexamethasone],"occludin protein, as compared to cells in normoxia",failed to induce an increase
